Results: PubChem BioAssay AID2685 (National Center for Advancing Translational Sciences (NCATS), 2010)
Some of the results follow. Further columns of the screen follow, without active or inactive calls. Compounds called inactive in the main read-out are mostly missing here. The note in brackets gives the kind of curve behind each potency; many fits are weak.

Test: qHTS Assay for Lipid Storage Modulators in Drosophila S3 Cells;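 as to cell number change: cells counted by Cell Tracker Red CMTPX staining in the red channel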
Details: BODIPY lipid droplet fluorescence, 18-24 h; for cell number change: measured here: cell count max response, cells fed with added oleic acid
Summary of the method: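 Laser-scanning cytometry quantifies lipid droplet accumulation (500–530 nm total intensity; droplet/cell object ratio) in oleic acid-fed (400 uM added) Drosophila S3 cells treated with a concentration series. 20 uM Triacsin C defined 100% inhibition.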

[1] = measured here: lipid fluorescence (Fed channel) AC50, cells fed with added oleic acid
[2] = measured here: cell number channel AC50, cells fed with added oleic acid

Cc1ccc(C(=O)NCC2CCCO2)cc1N1CCCC1=O (stereo unspecified) showed a cell number change of -29%.
For NC(=O)CC(NC(=O)Cc1ccc(Br)cc1)c1ccc(NCc2ccccn2)c([N+](=O)[O-])c1 (stereo unspecified), the cell number change was 12.5% and the AC50 [1] was 8.2 µM [rising, partial curve, poor fit].
Work on C=CCNC(=S)/C(=C(/[O-])c1ccccc1Br)[n+]1ccccc1 yielded a cell number change of 48.6%.
In the case of Cc1nnc(-c2ccccc2)c[n+]1[O-], the cell number change is reported as 2.24% and the AC50 [1] is reported as 2.59 µM [rising, full curve, poor fit].
In the case of O=C(COc1ccc([N+](=O)[O-])cc1)Nc1ccc(N2CCN(C(=O)c3ccco3)CC2)cc1, the AC50 [1] is reported as 3.26 µM [falling, partial curve, poor fit].
In the case of Cc1cc2nc3n(c2cc1C)CC1CC(C(=O)NCc2cccc(Br)c2)N(C)C31 (stereo unspecified), the cell number change is reported as 9.77% and the AC50 [1] is reported as 0.58 µM [rising, partial curve].
For COc1ccc2oc(C(=O)OCC(=O)N(CCC#N)c3ccccc3)c(C)c2c1, the cell number change was 28.2% and the AC50 [1] was 29.1 µM [rising, single point].
With CCCN(CC1CC1)C(=O)CCc1nnc(C(OC)c2ccccc2)o1 (stereo unspecified) the cell number change was -13.7% and the AC50 [1] was 11.6 µM [falling, partial curve].
With Cc1c(CCOC(=O)CC23CC4CC(CC(C4)C2)C3)sc[n+]1CC(=O)c1ccccc1 the cell number change was -56.3%, the AC50 [2] was 25.9 µM [falling, single point] and the AC50 [1] was 18.4 µM [falling, single point].
For COc1ccnc(Oc2ccc(F)cc2)c1C(=O)N/C=N/OCc1ccc(F)cc1Cl, the AC50 [2] was 1.84 µM [rising, partial curve].
In the case of COC(=O)CN1C(=O)C(O)(CC(=O)c2ccccc2)c2ccccc21 (stereo unspecified), the cell number change is reported as -6.14%, the AC50 [2] is reported as 0.731 µM [falling, partial curve, poor fit] and the AC50 [1] is reported as 18.4 µM [falling, partial curve, poor fit].
CCNc1ccc(C(=O)Nc2ccc3nc(C)sc3c2)cc1[N+](=O)[O-] showed a cell number change of -3.61%.
In the case of S=C(Nc1cccc(Cl)c1)N1CCN(c2ccccn2)CC1, the cell number change is reported as -6.88% and the AC50 [1] is reported as 25.9 µM [falling, single point].
With O=C(O)COn1c(-c2ccccc2)nc2ccc([N+](=O)[O-])cc21 the cell number change was -9.55%, the AC50 [2] was 1.46 µM [falling, partial curve, poor fit] and the AC50 [1] was 1.64 µM [falling, partial curve].
For O=C1CC(c2ccccc2)CC(O)=C1C=NCCc1ccccc1 (stereo unspecified), the cell number change was 26.5% and the AC50 [1] was 0.326 µM [falling, single point].
For COc1cccc(C(=O)NC2CCN(C(=O)N3CCCCC3)CC2)c1, the cell number change was -34%, the AC50 [2] was 11.6 µM [falling, partial curve] and the AC50 [1] was 16.4 µM [falling, partial curve, poor fit].
With CC(C)C(NS(=O)(=O)c1cccc2nsnc12)C(=O)Nc1nccs1 (stereo unspecified) the cell number change was -18.1%, the AC50 [2] was 0.164 µM [falling, full curve, poor fit] and the AC50 [1] was 0.731 µM [falling, partial curve, poor fit].
With CCC1Cc2c(nc(N)c3c(N)nc(N4CCCCC4)c(C#N)c23)O1 (stereo unspecified) the cell number change was 80.5%, the AC50 [2] was 3.26 µM [rising, full curve] and the AC50 [1] was 29.1 µM [rising, single point].
With CSc1nc(-c2ccccc2)nc(NC(C)=O)c1C(C)=O the cell number change was 76.9% and the AC50 [2] was 3.26 µM [rising, full curve].
In the case of O=C(CCl)N1c2ccccc2CCc2ccccc21, the cell number change is reported as -30.2%, the AC50 [2] is reported as 20.6 µM [falling, single point] and the AC50 [1] is reported as 16.4 µM [falling, partial curve].
With COCCN1Cc2cccc(C(=O)Nc3cccc(C)c3C)c2C1=O the AC50 [2] was 1.16 µM [rising, partial curve] and the AC50 [1] was 1.84 µM [rising, partial curve].
With Cn1c(=O)[nH]c(=O)c2c1nc(CN1CCOCC1)n2CCCc1ccccc1 the AC50 [2] was 2.06 µM [rising, partial curve, poor fit].
With CCCCC(=O)Nc1nc(C)c(-c2csc(Nc3cc(OC)ccc3OC)n2)s1 the cell number change was -39% and the AC50 [2] was 2.31 µM [falling, full curve, poor fit].
Molecule CC(=O)Nc1ccc(NC(=S)NC(=O)/C=C/c2ccccc2)cc1 has a cell number change of 23%.
In the case of O=C(NCc1ccco1)c1cc(C(=O)C2CC2)c[nH]1, the cell number change is reported as 14.7% and the AC50 [1] is reported as 18.4 µM [rising, single point].
Molecule O=C(c1cc(-c2ccc(Cl)cc2)nc2ccccc12)N1CCC1 has a cell number change of 24.3%.
In the case of CCOC(=O)c1[nH]c2ccccc2c1NC(=S)Nc1cc(C)ccc1C, the cell number change is reported as 19.7% and the AC50 [1] is reported as 9.2 µM [rising, partial curve].
With Cc1nnc(SCC(=O)Nc2ccc(S(=O)(=O)Nc3ccc(Cl)nn3)cc2)s1 the cell number change was -5.95%.
For COc1ccccc1NC(=O)CSc1ccc2nnc(-c3ccncc3)n2n1, the AC50 [1] was 5.17 µM [falling, partial curve, poor fit].
In the case of O=C(Nc1cccc2ccccc12)N1CCOCC1, the cell number change is reported as 7.89% and the AC50 [1] is reported as 0.0291 µM [rising, full curve, poor fit].
In the case of O=C(C/C=N/OCc1ccc(Cl)cc1)c1cnc(-c2ccccc2)s1, the cell number change is reported as 25.6% and the AC50 [1] is reported as 8.2 µM [rising, partial curve].
With CCOc1ccc(OCCSc2nc3ccccc3c(=O)[nH]2)cc1 the cell number change was 11.1%.
In the case of COc1cc(C(=O)NC2CCN(Cc3nnnn3Cc3cccs3)CC2)cc(OC)c1OC, the AC50 [2] is reported as 7.31 µM [rising, partial curve, poor fit] and the AC50 [1] is reported as 3.26 µM [rising, partial curve].
In the case of Cc1cccc(OCC(=O)N(Cc2cccs2)C2CCS(=O)(=O)C2)c1C (stereo unspecified), the AC50 [2] is reported as 0.651 µM [rising, single point].
For O=C(O)C1Sc2[nH]c(=O)sc2C2c3ccc(O)cc3OC(=O)C12 (stereo unspecified), the cell number change was 1.78% and the AC50 [1] was 0.82 µM [falling, full curve].
In the case of O=C1c2ccccc2C(=O)N1Cc1nn2c(-c3ccc(Cl)cc3)nnc2s1, the cell number change is reported as -4.83% and the AC50 [1] is reported as 1.3 µM [rising, full curve, poor fit].
In the case of CCOC(=O)Cc1csc(NC(=O)COc2ccc(N(C)S(=O)(=O)c3ccc(C)cc3)cc2)n1, the cell number change is reported as -5.16% and the AC50 [1] is reported as 8.2 µM [falling, partial curve].
In the case of C=CCn1c(SCC(C)=O)nc2scc(-c3ccc(C)o3)c2c1=O, the cell number change is reported as -38.1% and the AC50 [2] is reported as 13 µM [falling, partial curve, poor fit].
For Cc1cccc(NC(=O)COc2ccc(/C=C\c3[nH]c(=O)[nH]c(=O)c3[N+](=O)[O-])cc2)c1, the cell number change was -27.4% and the AC50 [1] was 20.6 µM [falling, single point].
Work on COc1cccc(-c2noc(C(C)n3nc(C)c([N+](=O)[O-])c3C)n2)c1 (stereo unspecified) yielded a cell number change of -20.1%.
In the case of CN(CC(=O)Nc1ccccc1Br)C(=O)c1sccc1-c1ccccc1, the cell number change is reported as 8.7% and the AC50 [2] is reported as 0.461 µM [rising, full curve, poor fit].
